These are yes or no findings as the source states them, for the method shown. Binding seen in cells or lysates may run through a third protein. These calls come from enrichment with a bait or labelling near it, and not all partners need be listed.
Target: T1, endogenous chicken STING (chicken (endogenous in DF-1)) (UniProt E1C7U0)
T1 sequence: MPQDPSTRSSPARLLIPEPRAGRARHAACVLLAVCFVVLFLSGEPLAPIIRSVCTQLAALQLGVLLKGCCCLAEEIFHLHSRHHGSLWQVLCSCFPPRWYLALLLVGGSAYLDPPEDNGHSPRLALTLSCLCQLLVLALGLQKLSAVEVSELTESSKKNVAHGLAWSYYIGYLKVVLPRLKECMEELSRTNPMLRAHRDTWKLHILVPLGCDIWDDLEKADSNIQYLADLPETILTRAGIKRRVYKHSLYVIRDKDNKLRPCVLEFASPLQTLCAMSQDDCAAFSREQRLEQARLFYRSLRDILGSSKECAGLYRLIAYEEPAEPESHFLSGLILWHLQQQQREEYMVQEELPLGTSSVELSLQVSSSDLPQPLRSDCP
Assay: affinity purification with mass spectrometry; endogenous Co-IP of chSTING followed by LC-MS/MS; no methods given

binding: binds
Substance: endogenous chicken DDX3X

Source: publication PMC6478769
